Source: PubChem BioAssay
This is one part of the list. The source made no clear call on entries shown without one.

Assay: PubChem AID 1608
Conditions: PC12 mutant huntingtin toxicity, LDH release

| SMILES | protection score |
| --- | --- |
| COc1c(OC)c2occc2c2oc(=O)ccc12 | 1.01 |
| CN=C(NC#N)NCCSCc1nc[nH]c1C | 0.952 |
| Cc1ccccc1OCC(O)CO (stereo not drawn) | 0.964 |
| CC(C)(C)NC[C@@H](O)COc1nsnc1N1CCOCC1 | 0.959 |
| COc1cc(NC(C)CCCN)c2ncccc2c1 (stereo not drawn) | 1.13 |
| CC[C@H](C)C(=O)O[C@H]1CCC=C2C=C[C@H](C)C(CCC3C[C@@H](O)CC(=O)O3)[C@H]21 (stereo partly drawn) | 1.03 |
| CCC(=O)OCC(=O)C1(OC(=O)CC)C(C)CC2C3CCC4=CC(=O)C=CC4(C)C3(Cl)C(O)CC21C (stereo not drawn) | 0.803 |
| N#Cc1ccc2c(c1)N(CCCN1CCC(O)CC1)c1ccccc1S2 | 0.924 |
| CC(=O)O[C@H]1C[C@@]2(C)[C@@H](C[C@@H](O)C3[C@]2(C)CC[C@H]2[C@H](C)[C@H](O)CC[C@]32C)/C1=C(/CCC=C(C)C)C(=O)O (stereo partly drawn) | 0.819 |
| CC(C)C[C@@H](NC(=O)OCC1c2ccccc2-c2ccccc21)C(=O)O | 1.05 |
| C=C1CC[C@H](O)C/C1=C/C=C1\CCC[C@]2(C)C([C@H](C)/C=C/[C@H](C)C(C)C)CC[C@@H]12 (stereo partly drawn) | 0.952 |
| CC[C@H]1CN2CCc3cc(OC)c(OC)cc3C2C[C@@H]1CC1NCCc2cc(OC)c(OC)cc21 (stereo partly drawn) | 1.08 |
| CC(C)CC(NC(=O)CCN)C(=O)O (stereo not drawn) | 1.12 |
| CCCCCCc1ccc(O)cc1O | 0.968 |

Assay: protection against mutant huntingtin cytotoxicity, PC12 cells, LDH release (AID 1610)
Conditions: PC12 mutant huntingtin toxicity; at 100 µM (top of the series)

| SMILES | normalised LDH release, lower = protection |
| --- | --- |
| COc1ccc(/C=C/c2cc(O)cc(O[C@@H]3O[C@H](CO)[C@@H](O)[C@H](O)[C@H]3O)c2)cc1O | 1.13 |
| CC(=O)[C@H]1CCC2C3CCC4=CC(=O)CC[C@]4(C)C3CC[C@@]21C (stereo partly drawn) | 0.4 |
| CN(C)CCCN1c2ccccc2Sc2ccc(Cl)cc21 | 0.988 |
| CC1=C(/C=C/C(C)=C/C=C/C(C)=C/C=C/C=C(C)/C=C/C=C(C)/C=C/C2=C(C)CCCC2(C)C)C(C)(C)CCC1 | 0.406 |
| COC(=O)[C@H]1[C@H]2C[C@H]3c4[nH]c5ccccc5c4CCN3C[C@H]2CC[C@@H]1O | -0.228 |
| CN(C)CC/C=C1/c2ccccc2COc2ccccc21 | 0.639 |
| C[C@H](CCC(=O)O)[C@H]1CCC2C3C(CC[C@@]21C)[C@@]1(C)CC[C@@H](O)C[C@H]1C[C@@H]3O (stereo partly drawn) | 0.483 |
| COC(=O)C(N)CS (stereo not drawn) | 0.504 |
| Nc1ccn(C2O[C@H](CO)[C@@H](O)[C@H]2O)c(=O)n1 (stereo partly drawn) | 0.895 |
| NC(=O)c1cccc(N)c1 | 0.864 |
| NC(=O)c1ccc([N+](=O)[O-])cc1Cl | 1.03 |
| NC(=O)NC(=O)Cc1ccccc1 | 0.551 |
| CC1(C)S[C@@H]2[C@H](NC(=O)COc3ccccc3)C(=O)N2[C@H]1C(=O)O | 0.593 |
| O=C1NC(=O)C(c2ccccc2)(c2ccccc2)N1 | 0.724 |
| Cc1noc(NS(=O)(=O)c2ccc(N)cc2)c1C | 0.399 |
| c1ccc(CC2=NCCN2)cc1 | 0.753 |
| C[C@@H]1CC2C3CCC4=CC(=O)C=C[C@]4(C)[C@@]3(F)[C@@H](O)C[C@]2(C)[C@@]1(O)C(=O)CO (stereo partly drawn) | 0.352 |
| NCC1CCC(N)C(OC2C(N)CC(N)C(OC3OC(CO)C(O)C(N)C3O)C2O)O1 (stereo not drawn) | 1.02 |
| O=C1OC(c2ccc(O)cc2)(c2ccc(O)cc2)c2ccccc21 | 0.737 |
| CC12CCC3c4ccc(OCc5ccccc5)cc4CCC3C1C[C@@H](O)[C@@H]2O (stereo partly drawn) | 1.15 |

| SMILES | normalised LDH release, lower = protection |
| --- | --- |
| CCCCN1CCCCC1C(=O)Nc1c(C)cccc1C (stereo not drawn) | 0.865 |
| N.N.O=C(O)C1(C(=O)O)CCC1.[Pt] | 0.917 |
| COc1ccc(C2C(=O)c3ccccc3C2=O)cc1 | -0.066 |
| COC1=C2C[C@@H](C)C[C@H](OC)[C@H](O)[C@@H](C)/C=C(\C)[C@@H](OC(N)=O)[C@H](OC)/C=C\C=C(/C)C(=O)NC(=CC1=O)C2=O | 1.02 |
| O=c1ccn([C@@H]2O[C@H](COP(=O)(O)OP(=O)(O)OP(=O)(O)O)[C@@H](O)[C@H]2O)c(=O)[nH]1 | 0.676 |
| COc1c(OC)c2occc2c2oc(=O)ccc12 | 1.11 |
| CN=C(NC#N)NCCSCc1nc[nH]c1C | 0.77 |
| Cc1ccccc1OCC(O)CO (stereo not drawn) | 0.867 |
| CC(C)(C)NC[C@@H](O)COc1nsnc1N1CCOCC1 | 0.655 |
| COc1cc(NC(C)CCCN)c2ncccc2c1 (stereo not drawn) | 0.941 |
| CC[C@H](C)C(=O)O[C@H]1CCC=C2C=C[C@H](C)C(CCC3C[C@@H](O)CC(=O)O3)[C@H]21 (stereo partly drawn) | 1.16 |
| CCC(=O)OCC(=O)C1(OC(=O)CC)C(C)CC2C3CCC4=CC(=O)C=CC4(C)C3(Cl)C(O)CC21C (stereo not drawn) | 0.379 |
| N#Cc1ccc2c(c1)N(CCCN1CCC(O)CC1)c1ccccc1S2 | 0.502 |
| CC(=O)O[C@H]1C[C@@]2(C)[C@@H](C[C@@H](O)C3[C@]2(C)CC[C@H]2[C@H](C)[C@H](O)CC[C@]32C)/C1=C(/CCC=C(C)C)C(=O)O (stereo partly drawn) | 0.553 |
| CC(C)C[C@@H](NC(=O)OCC1c2ccccc2-c2ccccc21)C(=O)O | 1.1 |
| C=C1CC[C@H](O)C/C1=C/C=C1\CCC[C@]2(C)C([C@H](C)/C=C/[C@H](C)C(C)C)CC[C@@H]12 (stereo partly drawn) | 0.491 |
| CC[C@H]1CN2CCc3cc(OC)c(OC)cc3C2C[C@@H]1CC1NCCc2cc(OC)c(OC)cc21 (stereo partly drawn) | 0.652 |
| CC(C)CC(NC(=O)CCN)C(=O)O (stereo not drawn) | 0.773 |
| CCCCCCc1ccc(O)cc1O | 0.652 |

Shown field by field: 2 of the compounds above.
CC(=O)[C@H]1CCC2C3CCC4=CC(=O)CC[C@]4(C)C3CC[C@@]21C (stereo partly drawn)
  normalised LDH release, lower = protection: 0.4
CC1(C)S[C@@H]2[C@H](NC(=O)COc3ccccc3)C(=O)N2[C@H]1C(=O)O
  normalised LDH release, lower = protection: 0.593
